# From the supplement of paper PMC8728848
# Some of the results follow.
# What was measured:
# Assay in all cases: glycan array binding signal (z-score within array); higher = stronger binding
# Details in all cases: glycan notation: IUPAC condensed, linker removed
# [1] = target: Neu5Ac(a2-3)Gal(b1-4)GlcNAc
# In short: (§1)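 Glycan array binding is given as a within-array Z-score, which can be read as non-binding when negative. The arrays, 3228 of them, came from the Consortium for Functional Glycomics database and were retained only where the protein sequence was available. Z-scores were averaged across arrays of the same protein sequence at different concentrations or buffers and across linkers.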
# [2] = target: Neu5Ac(a2-3)Gal(b1-4)GlcNAc(b1-2)Man
# In short: as §1
# [3] = target: Neu5Ac(a2-3)Gal(b1-4)GlcNAc(b1-2)Man(a1-3)[GlcNAc(b1-4)][Neu5Ac(a2-3)Gal(b1-4)GlcNAc(b1-2)Man(a1-6)]Man(b1-4)GlcNAc(b1-4)GlcNAc
# In short: as §1
# [4] = target: Neu5Ac(a2-3)Gal(b1-4)GlcNAc(b1-2)Man(a1-3)[Neu5Ac(a2-3)Gal(b1-4)GlcNAc(b1-2)Man(a1-6)]Man(b1-4)GlcNAc(b1-4)GlcNAc
# In short: as §1
# [5] = target: Neu5Ac(a2-3)Gal(b1-4)GlcNAc(b1-2)Man(a1-3)[Neu5Ac(a2-3)Gal(b1-4)GlcNAc(b1-2)Man(a1-6)]Man(b1-4)GlcNAc(b1-4)[Fuc(a1-6)]GlcNAc
# In short: as §1
# [6] = target: Neu5Ac(a2-3)Gal(b1-4)GlcNAc(b1-2)Man(a1-3)[Neu5Ac(a2-6)Gal(b1-4)GlcNAc(b1-2)Man(a1-6)]Man(b1-4)GlcNAc(b1-4)GlcNAc
# In short: as §1
# [7] = target: Neu5Ac(a2-3)Gal(b1-4)GlcNAc(b1-2)[Neu5Ac(a2-3)Gal(b1-4)GlcNAc(b1-4)]Man(a1-3)[GlcNAc(b1-4)][Neu5Ac(a2-3)Gal(b1-4)GlcNAc(b1-2)[Neu5Ac(a2-3)Gal(b1-4)GlcNAc(b1-6)]Man(a1-6)]Man(b1-4)GlcNAc(b1-4)GlcNAc
# In short: as §1
# [8] = target: Neu5Ac(a2-3)Gal(b1-4)GlcNAc(b1-2)[Neu5Ac(a2-3)Gal(b1-4)GlcNAc(b1-4)]Man(a1-3)[GlcNAc(b1-4)][Neu5Ac(a2-3)Gal(b1-4)GlcNAc(b1-4)Man(a1-6)]Man(b1-4)GlcNAc(b1-4)GlcNAc
# In short: as §1
# [9] = target: Neu5Ac(a2-3)Gal(b1-4)GlcNAc(b1-2)[Neu5Ac(a2-3)Gal(b1-4)GlcNAc(b1-6)]Man(a1-6)[Neu5Ac(a2-3)Gal(b1-4)GlcNAc(b1-2)Man(a1-3)]Man(b1-4)GlcNAc(b1-4)GlcNAc
# In short: as §1
# [10] = target: Neu5Ac(a2-3)Gal(b1-4)GlcNAc(b1-2)[Neu5Ac(a2-3)Gal(b1-4)GlcNAc(b1-6)]Man(a1-6)[Neu5Ac(a2-3)Gal(b1-4)GlcNAc(b1-2)Man(a1-3)][GlcNAc(b1-4)]Man(b1-4)GlcNAc(b1-4)GlcNAc
# In short: as §1
# [11] = target: Neu5Ac(a2-3)Gal(b1-4)GlcNAc(b1-3)Gal
# In short: as §1
# [12] = target: Neu5Ac(a2-3)Gal(b1-4)GlcNAc(b1-3)Gal(b1-3)GlcNAc
# In short: as §1
# [13] = target: Neu5Ac(a2-3)Gal(b1-4)GlcNAc(b1-3)Gal(b1-4)GlcNAc
# In short: as §1
# [14] = target: Neu5Ac(a2-3)Gal(b1-4)GlcNAc(b1-3)Gal(b1-4)GlcNAc(b1-2)Man(a1-3)[Neu5Ac(a2-3)Gal(b1-4)GlcNAc(b1-3)Gal(b1-4)GlcNAc(b1-2)Man(a1-6)]Man(b1-4)GlcNAc(b1-4)GlcNAc
# In short: as §1
# [15] = target: Neu5Ac(a2-3)Gal(b1-4)GlcNAc(b1-3)Gal(b1-4)GlcNAc(b1-3)Gal(b1-4)GlcNAc
# In short: as §1
# [16] = target: Neu5Ac(a2-3)Gal(b1-4)GlcNAc(b1-3)Gal(b1-4)GlcNAc(b1-3)Gal(b1-4)GlcNAc(b1-2)Man(a1-3)[Neu5Ac(a2-3)Gal(b1-4)GlcNAc(b1-3)Gal(b1-4)GlcNAc(b1-3)Gal(b1-4)GlcNAc(b1-2)Man(a1-6)]GalNAc
# In short: as §1
# [17] = target: Neu5Ac(a2-3)Gal(b1-4)GlcNAc(b1-3)Gal(b1-4)GlcNAc(b1-3)GalNAc
# In short: as §1
# [18] = target: Neu5Ac(a2-3)Gal(b1-4)GlcNAc(b1-3)Gal(b1-4)GlcNAc(b1-3)[Neu5Ac(a2-3)Gal(b1-4)GlcNAc(b1-3)Gal(b1-4)GlcNAc(b1-6)]GalNAc
# In short: as §1
# [19] = target: Neu5Ac(a2-3)Gal(b1-4)GlcNAc(b1-3)Gal(b1-4)GlcNAc(b1-6)[Gal(b1-3)]GalNAc
# In short: as §1
# [20] = target: Neu5Ac(a2-3)Gal(b1-4)GlcNAc(b1-3)Gal(b1-4)[Fuc(a1-3)]GlcNAc
# In short: as §1
# [21] = target: Neu5Ac(a2-3)Gal(b1-4)GlcNAc(b1-3)GalNAc
# In short: as §1
# [22] = target: Neu5Ac(a2-3)Gal(b1-4)GlcNAc(b1-3)[Neu5Ac(a2-3)Gal(b1-4)GlcNAc(b1-6)]GalNAc
# In short: as §1
# [23] = target: Neu5Ac(a2-3)Gal(b1-4)GlcNAc(b1-6)GalNAc
# In short: as §1
# [24] = target: Neu5Ac(a2-3)Gal(b1-4)GlcNAc(b1-6)[Gal(b1-3)]GalNAc
# In short: as §1
# [25] = target: Neu5Ac(a2-3)Gal(b1-4)GlcNAc(b1-6)[Neu5Ac(a2-3)Gal(b1-3)]GalNAc
# In short: as §1
# [26] = target: Neu5Ac(a2-3)Gal(b1-4)GlcNAc6S
# In short: as §1
# [27] = target: Neu5Ac(a2-3)Gal(b1-4)[Fuc(a1-3)]GlcNAc
# In short: as §1
# [28] = target: Neu5Ac(a2-3)Gal(b1-4)[Fuc(a1-3)]GlcNAc(b1-2)Man
# In short: as §1
# [29] = target: Neu5Ac(a2-3)Gal(b1-4)[Fuc(a1-3)]GlcNAc(b1-3)Gal
# In short: as §1
# [30] = target: Neu5Ac(a2-3)Gal(b1-4)[Fuc(a1-3)]GlcNAc(b1-3)Gal(b1-4)GlcNAc
# In short: as §1
# [31] = target: Neu5Ac(a2-3)Gal(b1-4)[Fuc(a1-3)]GlcNAc(b1-3)Gal(b1-4)[Fuc(a1-3)]GlcNAc(b1-3)Gal(b1-4)[Fuc(a1-3)]GlcNAc
# In short: as §1
# [32] = target: Neu5Ac(a2-3)Gal(b1-4)[Fuc(a1-3)]GlcNAc(b1-3)GalNAc
# In short: as §1
# [33] = target: Neu5Ac(a2-3)Gal(b1-4)[Fuc(a1-3)]GlcNAc(b1-6)[Gal(b1-3)]GalNAc
# In short: as §1
# [34] = target: Neu5Ac(a2-3)Gal(b1-4)[Fuc(a1-3)]GlcNAc(b1-6)[Neu5Ac(a2-3)Gal(b1-3)]GalNAc
# In short: as §1
# [35] = target: Neu5Ac(a2-3)Gal(b1-4)[Fuc(a1-3)]GlcNAc6S
# In short: as §1
# [36] = target: Neu5Ac(a2-3)Gal6S(b1-4)GlcNAc
# In short: as §1
# [37] = target: Neu5Ac(a2-3)Gal6S(b1-4)[Fuc(a1-3)]GlcNAc
# In short: as §1
# Neu5Ac(a2-3)GalNAc = target: Neu5Ac(a2-3)GalNAc
# In short: as §1
binder,measurement,setting,value
FliC (Clostridium difficile) (protein) MRVNTNVSALIANNQMGRNVNGQSKSMEKLSSGVRIKRAADDAAGLAISEKMRAQIKGLDQAGRNVQDGISVVQTAEGSLEETGNILQRMRTLSLQSANEINNTEEREKIADELTQLKDEIERISSSTEFNGKKLLDGTSSTIRLQVGASYGTNVSGTSNNNNEIKIQLVNTASIMASAGITTASIGSMKAGGTTGTDAAKTMVSSLDAALKSLNSSRAKLGAQQNRLESTQNNLNNTLENVTAAESRIRDTDVASEMVNLSKMNILVQASQSMLAQANQQPQGVLQLLG,glycan array binding signal (z-score),[1],-0.17
same,glycan array binding signal (z-score),[2],0.128
same,glycan array binding signal (z-score),[3],-0.31
same,glycan array binding signal (z-score),[4],-0.741
same,glycan array binding signal (z-score),[5],0.377
same,glycan array binding signal (z-score),[6],-0.336
same,glycan array binding signal (z-score),[7],-0.418
same,glycan array binding signal (z-score),[8],-0.689
same,glycan array binding signal (z-score),[9],-0.275
same,glycan array binding signal (z-score),[10],-0.653
same,glycan array binding signal (z-score),[11],-0.656
same,glycan array binding signal (z-score),[12],-0.215
same,glycan array binding signal (z-score),[13],-0.43
same,glycan array binding signal (z-score),[14],1.02
same,glycan array binding signal (z-score),[15],-0.25
same,glycan array binding signal (z-score),[16],6.63
same,glycan array binding signal (z-score),[17],-0.31
same,glycan array binding signal (z-score),[18],0.181
same,glycan array binding signal (z-score),[19],1.2
same,glycan array binding signal (z-score),[20],-0.061
same,glycan array binding signal (z-score),[21],0.027
same,glycan array binding signal (z-score),[22],-0.612
same,glycan array binding signal (z-score),[23],-0.348
same,glycan array binding signal (z-score),[24],0.457
same,glycan array binding signal (z-score),[25],0.606
same,glycan array binding signal (z-score),[26],-0.623
same,glycan array binding signal (z-score),[27],-0.47
same,glycan array binding signal (z-score),[28],-0.259
same,glycan array binding signal (z-score),[29],-0.24
same,glycan array binding signal (z-score),[30],0.302
same,glycan array binding signal (z-score),[31],-0.532
same,glycan array binding signal (z-score),[32],-0.403
same,glycan array binding signal (z-score),[33],0.301
same,glycan array binding signal (z-score),[34],-0.082
same,glycan array binding signal (z-score),[35],-0.233
same,glycan array binding signal (z-score),[36],-0.384
same,glycan array binding signal (z-score),[37],-0.433
same,glycan array binding signal (z-score),Neu5Ac(a2-3)GalNAc,-0.695

# Two entries from above, bar-delimited:
binder | measurement | setting | value
FliC (Clostridium difficile) (protein) MRVNTNVSALIANNQMGRNVNGQSKSMEKLSSGVRIKRAADDAAGLAISEKMRAQIKGLDQAGRNVQDGISVVQTAEGSLEETGNILQRMRTLSLQSANEINNTEEREKIADELTQLKDEIERISSSTEFNGKKLLDGTSSTIRLQVGASYGTNVSGTSNNNNEIKIQLVNTASIMASAGITTASIGSMKAGGTTGTDAAKTMVSSLDAALKSLNSSRAKLGAQQNRLESTQNNLNNTLENVTAAESRIRDTDVASEMVNLSKMNILVQASQSMLAQANQQPQGVLQLLG | glycan array binding signal (z-score) | [23] | -0.348
same | glycan array binding signal (z-score) | [24] | 0.457
